Measured values from paper PMC5650470.
No constants are given. Whether binding was seen depends on the method and setting. In cells and extracts the contact can be indirect. Some entries that bind do so weakly or less than the wild type.

Amino acid sequences for entries named in this document (tags omitted).
UniProt P40337: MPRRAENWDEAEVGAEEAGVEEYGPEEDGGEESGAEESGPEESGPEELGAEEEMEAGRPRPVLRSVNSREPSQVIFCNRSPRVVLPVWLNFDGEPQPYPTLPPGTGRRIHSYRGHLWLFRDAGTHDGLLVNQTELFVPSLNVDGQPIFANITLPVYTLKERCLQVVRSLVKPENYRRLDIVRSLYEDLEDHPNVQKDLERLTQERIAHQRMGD
UniProt Q80U19: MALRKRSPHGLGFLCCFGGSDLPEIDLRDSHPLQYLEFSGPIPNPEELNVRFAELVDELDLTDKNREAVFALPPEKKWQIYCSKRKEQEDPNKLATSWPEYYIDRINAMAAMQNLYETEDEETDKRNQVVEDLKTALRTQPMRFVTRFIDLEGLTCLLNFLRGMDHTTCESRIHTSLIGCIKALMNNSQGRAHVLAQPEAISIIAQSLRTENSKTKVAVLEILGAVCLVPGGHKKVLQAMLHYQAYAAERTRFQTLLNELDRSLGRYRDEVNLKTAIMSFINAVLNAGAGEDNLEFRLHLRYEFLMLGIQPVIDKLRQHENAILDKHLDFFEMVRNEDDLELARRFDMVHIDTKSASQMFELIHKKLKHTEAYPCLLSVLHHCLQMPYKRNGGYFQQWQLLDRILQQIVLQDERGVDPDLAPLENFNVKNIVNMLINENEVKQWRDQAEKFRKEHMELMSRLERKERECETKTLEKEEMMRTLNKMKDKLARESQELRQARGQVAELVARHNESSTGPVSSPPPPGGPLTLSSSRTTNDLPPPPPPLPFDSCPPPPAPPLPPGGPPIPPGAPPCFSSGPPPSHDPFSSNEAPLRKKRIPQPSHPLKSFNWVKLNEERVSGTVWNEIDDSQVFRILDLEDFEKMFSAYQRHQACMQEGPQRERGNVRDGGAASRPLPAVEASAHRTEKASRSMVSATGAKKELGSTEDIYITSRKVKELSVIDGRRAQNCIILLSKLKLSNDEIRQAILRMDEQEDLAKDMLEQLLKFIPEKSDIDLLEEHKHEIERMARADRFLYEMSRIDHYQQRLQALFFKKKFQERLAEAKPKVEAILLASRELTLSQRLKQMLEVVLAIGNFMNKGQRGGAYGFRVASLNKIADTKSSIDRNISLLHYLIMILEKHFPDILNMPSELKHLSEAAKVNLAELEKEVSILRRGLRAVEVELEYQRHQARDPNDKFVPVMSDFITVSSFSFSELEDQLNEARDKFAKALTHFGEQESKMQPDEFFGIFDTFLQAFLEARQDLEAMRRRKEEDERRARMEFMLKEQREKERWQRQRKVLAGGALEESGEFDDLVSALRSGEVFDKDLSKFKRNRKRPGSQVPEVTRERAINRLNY
UniProt P40338: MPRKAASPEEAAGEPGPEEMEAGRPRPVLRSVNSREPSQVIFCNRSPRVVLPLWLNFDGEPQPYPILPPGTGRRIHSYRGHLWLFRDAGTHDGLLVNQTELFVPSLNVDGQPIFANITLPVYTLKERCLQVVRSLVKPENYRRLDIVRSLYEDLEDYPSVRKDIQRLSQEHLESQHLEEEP

What was measured:
HA-tagged VHL = HA-tagged VHL (UniProt P40337); assay: co-IP; reverse IP: HA-VHL precipitated, Flag-Daam2 detected; protein lysates from the PB-Ras model of glioma
Flag-tagged Daam2 = Flag-tagged Daam2 (UniProt Q80U19); assay: co-IP; immunoprecipitation of Flag-Daam2 from lysates of PB-Ras mouse glioma overexpressing Flag-Daam2; immunoblot with VHL antibody

binding (HA-tagged VHL) | binding (Flag-tagged Daam2) | Substance
binds | – | Flag-tagged Daam2 (from UniProt Q80U19 1-1115)
– | binds | endogenous VHL (from UniProt P40338 1-181)
